Results: patent publication US6337394B2, “Compounds” (AstraZeneca AB, priority 1997, dated 2002)
Some results were stated once for a whole list of compounds, not compound by compound.

Target: T1, Human thrombin (Homo sapiens, UniProt P00734)
T1 construct: purchased Sigma Chem. Co. T 6769
Assay: Determination of Thrombin Clotting Time (TT), Test A
Type: biochemical
Conditions: concentration of inhibitor that doubles the thrombin clotting time for human plasma; pooled normal citrated human plasma, pH 7.4
Procedure: Determination of Thrombin Clotting Time (TT)
Human thrombin (T 6769, Sigma Chem. Co.) in buffer solution, pH 7.4, 100 μL, and inhibitor solution, 100 μL, were incubated for one min. Pooled normal citrated human plasma, 100 μL, was then added and the clotting time measured in an automatic device (KC 10, Amelumg).
The clotting time in seconds was plotted against the inhibitor concentration, and the IC50TT was determined by interpolation.
IC50TT is the concentration of inhibitor in the test that doubles the thrombin clotting time for human plasma.

## (2,5-diMeO)Ph—(S)— or (R)—CH(CH2OH)—CO-Pro-Pab(2-Cl)×HOAc [Example 1]
  IC50: < 300 nM
